# Measured values published in the supplement of paper PMC10849652.
# The chains behind the UniProt entries cited, without tags or fusion partners. Where a name states a change or a piece, a line headed by the entry shows the natural chain unless it says otherwise.
# UniProt Q96Q05, whole entry, looked up: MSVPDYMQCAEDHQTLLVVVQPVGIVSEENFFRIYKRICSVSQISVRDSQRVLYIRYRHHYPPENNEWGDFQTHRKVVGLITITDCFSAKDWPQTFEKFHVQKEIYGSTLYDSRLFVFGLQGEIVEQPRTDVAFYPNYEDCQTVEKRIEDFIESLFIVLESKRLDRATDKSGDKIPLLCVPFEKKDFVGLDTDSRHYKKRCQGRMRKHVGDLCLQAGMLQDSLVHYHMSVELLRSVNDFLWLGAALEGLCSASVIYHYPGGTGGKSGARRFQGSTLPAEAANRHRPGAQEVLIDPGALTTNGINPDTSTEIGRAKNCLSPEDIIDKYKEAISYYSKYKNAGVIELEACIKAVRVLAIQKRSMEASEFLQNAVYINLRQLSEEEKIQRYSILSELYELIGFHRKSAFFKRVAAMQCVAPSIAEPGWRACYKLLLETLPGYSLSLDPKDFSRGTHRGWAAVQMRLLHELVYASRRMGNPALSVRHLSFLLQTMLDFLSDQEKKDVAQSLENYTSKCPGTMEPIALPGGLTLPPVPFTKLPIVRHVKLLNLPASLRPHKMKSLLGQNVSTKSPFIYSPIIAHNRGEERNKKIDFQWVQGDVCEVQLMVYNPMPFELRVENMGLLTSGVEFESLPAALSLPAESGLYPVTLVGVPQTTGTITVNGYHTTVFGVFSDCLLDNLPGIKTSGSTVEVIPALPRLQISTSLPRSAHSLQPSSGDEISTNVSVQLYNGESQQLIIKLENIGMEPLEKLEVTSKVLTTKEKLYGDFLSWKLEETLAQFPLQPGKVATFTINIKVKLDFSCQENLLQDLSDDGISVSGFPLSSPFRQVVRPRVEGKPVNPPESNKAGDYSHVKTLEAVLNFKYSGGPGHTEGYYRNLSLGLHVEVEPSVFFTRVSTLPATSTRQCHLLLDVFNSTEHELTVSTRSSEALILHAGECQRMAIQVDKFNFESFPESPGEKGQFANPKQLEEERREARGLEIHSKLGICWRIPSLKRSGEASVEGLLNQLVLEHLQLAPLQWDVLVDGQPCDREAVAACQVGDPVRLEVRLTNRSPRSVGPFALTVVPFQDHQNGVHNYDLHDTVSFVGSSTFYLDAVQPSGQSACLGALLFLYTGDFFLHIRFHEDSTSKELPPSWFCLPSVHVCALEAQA
# UniProt Q15645: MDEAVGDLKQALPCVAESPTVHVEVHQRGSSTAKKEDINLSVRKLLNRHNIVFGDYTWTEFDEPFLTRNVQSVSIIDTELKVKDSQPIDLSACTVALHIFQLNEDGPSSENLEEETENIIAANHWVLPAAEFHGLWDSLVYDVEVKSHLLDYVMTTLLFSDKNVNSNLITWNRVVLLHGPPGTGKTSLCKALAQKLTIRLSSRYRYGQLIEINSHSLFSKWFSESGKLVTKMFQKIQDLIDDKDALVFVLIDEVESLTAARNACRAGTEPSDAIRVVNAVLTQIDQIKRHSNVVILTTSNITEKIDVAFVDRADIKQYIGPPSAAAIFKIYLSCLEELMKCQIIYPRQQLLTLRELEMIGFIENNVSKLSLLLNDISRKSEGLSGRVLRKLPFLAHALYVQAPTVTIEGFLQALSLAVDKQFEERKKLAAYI
# UniProt Q6PID6, whole entry, looked up: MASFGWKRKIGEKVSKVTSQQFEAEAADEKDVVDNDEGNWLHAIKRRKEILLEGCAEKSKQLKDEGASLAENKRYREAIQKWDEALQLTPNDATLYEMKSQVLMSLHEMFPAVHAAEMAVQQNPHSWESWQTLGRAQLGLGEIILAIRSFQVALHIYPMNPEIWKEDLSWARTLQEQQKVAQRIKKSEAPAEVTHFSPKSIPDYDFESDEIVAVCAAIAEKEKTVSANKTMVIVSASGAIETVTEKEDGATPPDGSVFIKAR
# UniProt Q9UJA5: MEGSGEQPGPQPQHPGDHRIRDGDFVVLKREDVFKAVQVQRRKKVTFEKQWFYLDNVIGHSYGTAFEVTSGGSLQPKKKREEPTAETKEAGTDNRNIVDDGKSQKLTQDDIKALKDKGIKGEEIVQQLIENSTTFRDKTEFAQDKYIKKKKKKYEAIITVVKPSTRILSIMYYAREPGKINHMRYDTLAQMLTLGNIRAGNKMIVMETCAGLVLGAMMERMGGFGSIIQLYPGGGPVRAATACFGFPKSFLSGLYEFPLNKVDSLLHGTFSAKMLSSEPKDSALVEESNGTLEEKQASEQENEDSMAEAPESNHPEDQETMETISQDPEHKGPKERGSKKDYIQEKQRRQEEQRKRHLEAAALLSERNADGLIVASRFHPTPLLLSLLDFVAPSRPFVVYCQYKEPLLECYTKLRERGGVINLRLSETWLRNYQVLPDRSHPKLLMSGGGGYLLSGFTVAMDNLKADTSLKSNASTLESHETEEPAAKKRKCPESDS
# UniProt Q13630: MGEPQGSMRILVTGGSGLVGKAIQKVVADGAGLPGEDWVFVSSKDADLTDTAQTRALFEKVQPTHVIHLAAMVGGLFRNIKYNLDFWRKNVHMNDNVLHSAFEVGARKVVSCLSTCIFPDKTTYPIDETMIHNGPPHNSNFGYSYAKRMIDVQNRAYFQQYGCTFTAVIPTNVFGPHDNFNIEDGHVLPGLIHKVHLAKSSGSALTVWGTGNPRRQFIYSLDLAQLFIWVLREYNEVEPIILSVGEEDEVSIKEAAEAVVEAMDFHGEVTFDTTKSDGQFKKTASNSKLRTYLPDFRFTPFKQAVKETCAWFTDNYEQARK
# UniProt Q9H892: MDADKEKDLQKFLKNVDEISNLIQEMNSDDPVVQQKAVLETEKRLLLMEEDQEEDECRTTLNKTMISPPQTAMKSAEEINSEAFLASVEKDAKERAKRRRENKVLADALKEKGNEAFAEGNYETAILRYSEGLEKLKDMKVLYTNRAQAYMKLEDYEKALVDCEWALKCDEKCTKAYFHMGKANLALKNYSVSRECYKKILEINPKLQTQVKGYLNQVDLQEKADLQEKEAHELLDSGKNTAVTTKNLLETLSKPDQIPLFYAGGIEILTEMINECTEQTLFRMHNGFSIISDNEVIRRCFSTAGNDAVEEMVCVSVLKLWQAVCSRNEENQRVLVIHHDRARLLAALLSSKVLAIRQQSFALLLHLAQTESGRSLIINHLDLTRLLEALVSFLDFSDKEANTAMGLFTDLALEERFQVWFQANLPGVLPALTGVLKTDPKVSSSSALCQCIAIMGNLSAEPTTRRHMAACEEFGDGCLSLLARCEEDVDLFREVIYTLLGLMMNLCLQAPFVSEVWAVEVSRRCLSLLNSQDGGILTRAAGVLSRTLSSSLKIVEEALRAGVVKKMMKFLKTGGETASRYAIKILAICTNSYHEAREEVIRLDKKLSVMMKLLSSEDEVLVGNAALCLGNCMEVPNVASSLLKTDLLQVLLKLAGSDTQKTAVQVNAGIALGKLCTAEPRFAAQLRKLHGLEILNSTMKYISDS
# UniProt Q9BQ61: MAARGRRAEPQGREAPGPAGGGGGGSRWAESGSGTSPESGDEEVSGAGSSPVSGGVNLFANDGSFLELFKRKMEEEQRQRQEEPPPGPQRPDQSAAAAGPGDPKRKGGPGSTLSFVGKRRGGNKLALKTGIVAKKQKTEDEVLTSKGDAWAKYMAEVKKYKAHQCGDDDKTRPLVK
# UniProt Q8TDR0: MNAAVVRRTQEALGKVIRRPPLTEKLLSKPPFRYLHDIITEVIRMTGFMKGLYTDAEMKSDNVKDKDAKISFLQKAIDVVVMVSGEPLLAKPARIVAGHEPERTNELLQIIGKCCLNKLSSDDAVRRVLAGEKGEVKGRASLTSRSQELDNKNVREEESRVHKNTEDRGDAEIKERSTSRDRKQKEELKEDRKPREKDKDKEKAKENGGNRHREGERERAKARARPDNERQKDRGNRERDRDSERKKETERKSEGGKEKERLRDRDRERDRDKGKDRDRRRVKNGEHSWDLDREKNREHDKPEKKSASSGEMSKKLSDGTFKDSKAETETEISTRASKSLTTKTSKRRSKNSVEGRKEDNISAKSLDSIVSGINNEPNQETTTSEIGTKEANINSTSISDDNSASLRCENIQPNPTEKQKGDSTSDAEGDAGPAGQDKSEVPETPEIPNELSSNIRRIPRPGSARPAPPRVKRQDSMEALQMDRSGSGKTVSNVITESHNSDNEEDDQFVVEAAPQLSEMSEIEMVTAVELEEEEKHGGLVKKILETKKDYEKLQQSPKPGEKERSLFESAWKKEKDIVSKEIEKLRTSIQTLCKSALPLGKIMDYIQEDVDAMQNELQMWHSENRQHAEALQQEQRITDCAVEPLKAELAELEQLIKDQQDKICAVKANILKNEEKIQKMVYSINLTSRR
# UniProt Q9H2D6: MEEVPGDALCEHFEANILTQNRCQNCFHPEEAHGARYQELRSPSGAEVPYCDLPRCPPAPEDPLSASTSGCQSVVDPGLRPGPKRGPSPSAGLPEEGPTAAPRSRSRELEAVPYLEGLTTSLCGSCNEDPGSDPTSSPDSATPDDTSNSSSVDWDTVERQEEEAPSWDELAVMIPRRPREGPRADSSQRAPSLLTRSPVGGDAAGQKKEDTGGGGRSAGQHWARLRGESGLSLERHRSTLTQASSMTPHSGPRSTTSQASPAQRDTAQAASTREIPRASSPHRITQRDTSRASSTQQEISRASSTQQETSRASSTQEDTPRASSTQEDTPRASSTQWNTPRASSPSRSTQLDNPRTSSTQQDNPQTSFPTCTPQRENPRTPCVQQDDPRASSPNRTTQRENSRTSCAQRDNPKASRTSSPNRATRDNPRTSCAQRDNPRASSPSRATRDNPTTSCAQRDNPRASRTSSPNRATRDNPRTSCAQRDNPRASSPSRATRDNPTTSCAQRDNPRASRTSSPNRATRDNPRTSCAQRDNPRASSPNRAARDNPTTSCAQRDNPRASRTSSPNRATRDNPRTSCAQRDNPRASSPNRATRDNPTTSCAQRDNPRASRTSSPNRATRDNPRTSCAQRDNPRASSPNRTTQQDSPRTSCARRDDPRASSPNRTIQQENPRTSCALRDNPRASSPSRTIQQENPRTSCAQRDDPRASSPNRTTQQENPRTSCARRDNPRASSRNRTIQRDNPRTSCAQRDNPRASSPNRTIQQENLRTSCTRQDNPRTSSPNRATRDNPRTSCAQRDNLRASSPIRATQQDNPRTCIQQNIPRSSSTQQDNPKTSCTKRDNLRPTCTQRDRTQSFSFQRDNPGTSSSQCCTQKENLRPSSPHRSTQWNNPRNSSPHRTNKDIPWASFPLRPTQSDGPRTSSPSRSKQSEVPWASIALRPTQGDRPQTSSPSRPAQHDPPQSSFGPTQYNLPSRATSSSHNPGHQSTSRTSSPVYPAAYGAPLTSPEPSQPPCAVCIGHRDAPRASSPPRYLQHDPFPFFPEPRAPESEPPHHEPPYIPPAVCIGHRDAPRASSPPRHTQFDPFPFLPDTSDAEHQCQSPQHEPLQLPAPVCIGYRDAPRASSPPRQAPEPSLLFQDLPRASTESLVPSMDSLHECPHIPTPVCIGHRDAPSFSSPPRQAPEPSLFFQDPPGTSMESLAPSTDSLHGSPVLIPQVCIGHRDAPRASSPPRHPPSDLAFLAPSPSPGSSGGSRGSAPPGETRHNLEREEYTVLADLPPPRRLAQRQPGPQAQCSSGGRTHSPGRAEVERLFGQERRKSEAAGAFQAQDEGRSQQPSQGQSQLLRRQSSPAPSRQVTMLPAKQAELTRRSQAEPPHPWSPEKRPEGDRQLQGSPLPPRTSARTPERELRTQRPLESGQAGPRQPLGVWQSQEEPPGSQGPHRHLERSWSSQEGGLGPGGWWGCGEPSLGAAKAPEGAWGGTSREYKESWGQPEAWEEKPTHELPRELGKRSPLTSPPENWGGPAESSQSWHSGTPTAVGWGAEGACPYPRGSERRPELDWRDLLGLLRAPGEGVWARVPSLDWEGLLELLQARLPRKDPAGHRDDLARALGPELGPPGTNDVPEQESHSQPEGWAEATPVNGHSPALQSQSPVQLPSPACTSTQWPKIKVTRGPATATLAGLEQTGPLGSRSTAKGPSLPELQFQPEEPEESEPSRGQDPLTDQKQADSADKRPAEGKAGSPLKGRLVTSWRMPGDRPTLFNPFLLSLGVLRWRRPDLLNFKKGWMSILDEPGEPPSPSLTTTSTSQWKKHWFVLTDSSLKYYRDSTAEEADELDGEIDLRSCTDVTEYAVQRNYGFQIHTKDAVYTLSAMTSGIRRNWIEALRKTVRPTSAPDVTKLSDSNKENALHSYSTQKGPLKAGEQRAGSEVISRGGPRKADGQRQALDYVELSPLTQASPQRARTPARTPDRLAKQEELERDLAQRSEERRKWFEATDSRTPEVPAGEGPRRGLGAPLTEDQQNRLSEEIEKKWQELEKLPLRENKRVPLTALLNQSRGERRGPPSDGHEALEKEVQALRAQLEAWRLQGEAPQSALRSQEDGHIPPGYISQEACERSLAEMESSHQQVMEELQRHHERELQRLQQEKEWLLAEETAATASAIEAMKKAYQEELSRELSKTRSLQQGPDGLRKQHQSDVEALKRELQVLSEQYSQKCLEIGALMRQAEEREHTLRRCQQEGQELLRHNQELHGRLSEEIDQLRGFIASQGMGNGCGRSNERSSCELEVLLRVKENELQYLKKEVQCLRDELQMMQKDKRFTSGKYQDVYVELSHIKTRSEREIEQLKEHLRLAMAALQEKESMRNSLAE
# The list shows a part of the results.
# Columns and labels:
# Test in all cases: log2 fold change, soluble protein after heating vs DMSO (PISA); higher = thermal stabilisation; K562 lysate, 10 uM; active = over 0.2 and 3.5 SD of the protein, either way, in both replicates (recomputed)
# erlotinib = compound: C#Cc1cccc(Nc2ncnc3cc(OCCOC)c(OCCOC)cc23)c1 [erlotinib]
# Outline: (§1)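 K562 pellets were dounce-homogenised in PBS pH 7.4 with 1 mM MgCl2, and the crude extract at 1 mg/mL protein was treated with 10 μM compound for 30 min. Aliquots were heated for 3 min across 48°C-58°C, pooled, and brought to 0.5% NP-40 at 4°C; soluble protein was the supernatant after 21,000xg for 90 min. Soluble protein was quantified by TMTpro 16plex LC-MS/MS with channel sums equalised, and reported as log2 fold change in thermal stability against DMSO controls, with values from duplicates.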
# [1] = compound: C/C(=N\NC(=O)C1=CC(=CC=C1)S(=O)(=O)N2CCOCC2)/C3=C(C=CC(=C3)Cl)O
# Outline: as §1
# [2] = compound: C1=CC(=CC=C1C2=NC3=C(N2)C=C(C=C3)C(=O)N)OC4=CC=C(C=C4)Cl
# Outline: as §1
# [3] = compound: C1=CC2=C(C=CC(=C2)/C=C\3/C(=O)NC(=NCC4=CC=CS4)S3)N=C1
# Outline: as §1
# [4] = compound: C1=CC2=NC=CN=C2C=C1/C=C/3\C(=O)NC(=O)S3
# Outline: as §1
# [5] = compound: C1=CC=C(C=C1)C2=NC(=C(N2)C3=CC=NC=C3)C4=CC(=C(C=C4)Cl)O
# Outline: as §1
# [6] = compound: C1=CC=C2C(=C1)C3=NNC4=CC=CC(=C43)C2=O
# Outline: as §1
# [7] = compound: C1CCN(C1)C(=O)NC2=CC=CC(=C2)NC3=NC=C(C(=N3)NCCC4=CN=CN4)Br
# Outline: as §1
# [8] = compound: C1CN(CCC1(CC2=CC=C(C=C2)Cl)N)C3=NC=NC4=C3C=CN4
# Outline: as §1
# IRAK-1-4 Inhibitor I = compound: C1COCCN1CCN2C3=CC=CC=C3N=C2NC(=O)C4=CC(=CC=C4)[N+](=O)[O-] [IRAK-1-4 Inhibitor I]
# Outline: as §1
Target,log2 fold change (erlotinib),log2 fold change [1],log2 fold change [2],log2 fold change [3],log2 fold change [4],log2 fold change [5],log2 fold change [6],log2 fold change [7],log2 fold change [8],log2 fold change (IRAK-1-4 Inhibitor I)
TRAPPC9 isoform 2 (UniProt Q96Q05),inactive: 0.033,inactive: 0.113,inactive: -0.01,inactive: 0.006,inactive: -0.04,inactive: -0.012,inactive: -0.005,inactive: 0.027,inactive: 0.034,inactive: 0.027
TRIP13 (UniProt Q15645),inactive: 0.034,inactive: -0.117,inactive: 0.007,inactive: 0.04,inactive: -0.034,inactive: 0.009,inactive: -0.038,inactive: 0,inactive: -0.002,inactive: 0.005
TROAP (UniProt Q12815),inactive: -0.023,inactive: -0.02,inactive: 0.028,inactive: -0.036,inactive: -0.054,inactive: 0.017,inactive: -0.027,inactive: 0.035,inactive: 0.104,inactive: -0.011
TTC38 (UniProt Q5R3I4),inactive: 0.037,inactive: 0.015,inactive: 0.009,inactive: 0.039,inactive: 0.007,inactive: 0.035,inactive: -0.022,inactive: -0.003,inactive: 0.068,inactive: -0.004
TRIM21 (UniProt P19474),inactive: 0.048,inactive: -0.018,inactive: -0.057,inactive: 0.12,inactive: -0.02,inactive: -0.06,inactive: -0.089,inactive: -0.017,inactive: -0.012,inactive: 0.041
TRIM11 (UniProt Q96F44),inactive: 0.005,inactive: -0.012,inactive: -0.008,inactive: -0.002,inactive: 0.012,inactive: -0.018,inactive: -0.032,inactive: -0.046,inactive: 0.002,inactive: 0.043
TSEN54 (UniProt Q7Z6J9),inactive: 0.066,inactive: 0.016,inactive: 0.031,inactive: 0.073,inactive: -0.027,inactive: 0.018,inactive: -0.076,inactive: -0.033,inactive: 0.045,inactive: -0.025
TTC33 (UniProt Q6PID6),inactive: 0.008,inactive: -0.031,inactive: -0.014,inactive: 0.042,inactive: 0.036,inactive: 0.03,inactive: -0.025,inactive: -0.003,inactive: 0.017,inactive: -0.032
TRIP11 (UniProt Q15643),inactive: -0.053,inactive: 0.058,inactive: -0.016,inactive: 0.023,inactive: -0.024,inactive: -0.005,inactive: -0.035,inactive: -0.081,inactive: 0.022,inactive: 0.02
TRMT61A (UniProt Q96FX7),inactive: 0.013,inactive: -0.058,inactive: 0.032,inactive: 0.002,inactive: -0.005,inactive: 0.007,inactive: -0.016,inactive: 0.021,inactive: -0.005,inactive: -0.001
TTC27 (UniProt Q6P3X3),inactive: 0.017,inactive: 0.018,inactive: -0.043,inactive: 0.004,inactive: 0.007,inactive: -0.014,inactive: -0.028,inactive: -0.015,inactive: 0.006,inactive: -0.013
TRIM33 isoform 2 (UniProt Q9UPN9),inactive: 0.004,inactive: -0.016,inactive: 0.014,inactive: 0.004,inactive: -0.002,inactive: 0.003,inactive: 0.008,inactive: -0.03,inactive: 0.006,inactive: -0.02
TRMT6 (UniProt Q9UJA5),inactive: -0.022,inactive: -0.036,inactive: -0.007,inactive: -0.008,inactive: 0,inactive: -0.008,inactive: -0.001,inactive: -0.001,inactive: -0.006,inactive: 0
TSPAN13 (UniProt O95857),inactive: 0.002,inactive: 0.053,inactive: 0.06,inactive: 0.003,inactive: -0.002,inactive: 0.008,inactive: -0.167,inactive: 0.202,inactive: -0.053,inactive: -0.051
TSTA3 (UniProt Q13630),inactive: 0.026,inactive: 0.04,inactive: 0.003,inactive: -0.044,inactive: -0.023,inactive: 0.013,inactive: 0.041,inactive: -0.033,inactive: 0.013,inactive: -0.012
TTC12 isoform 2 (UniProt Q9H892),inactive: 0.066,inactive: -0.051,inactive: 0.055,inactive: 0.007,inactive: -0.081,inactive: -0.037,inactive: -0.019,inactive: -0.006,inactive: 0.034,inactive: 0.231
TRPC4AP (UniProt Q8TEL6),inactive: 0.009,inactive: -0.039,inactive: -0.027,inactive: -0.036,inactive: -0.006,inactive: -0.004,inactive: 0.031,inactive: 0.03,inactive: 0.016,inactive: -0.005
TRIM5 (UniProt Q9C035),inactive: 0.019,inactive: -0.081,inactive: -0.009,inactive: 0.045,inactive: -0.023,inactive: 0.04,inactive: -0.126,inactive: -0.063,inactive: -0.073,inactive: -0.007
TRIR (UniProt Q9BQ61),inactive: -0.017,inactive: 0.016,inactive: 0.07,inactive: 0.014,inactive: -0.087,inactive: 0.04,inactive: -0.01,inactive: 0.003,inactive: 0.04,inactive: -0.006
TTC17 (UniProt Q96AE7),inactive: 0.019,inactive: -0.067,inactive: -0.002,inactive: -0.008,inactive: 0.076,inactive: 0.003,inactive: -0.017,inactive: -0.023,inactive: 0,inactive: 0.029
TSPAN14 (UniProt Q8NG11),inactive: 0.042,inactive: -0.034,inactive: -0.022,inactive: -0.005,inactive: 0.04,inactive: -0.003,inactive: -0.047,inactive: 0.006,inactive: 0.033,inactive: -0.035
TRAF3IP1 (UniProt Q8TDR0),inactive: -0.02,inactive: -0.076,inactive: 0.01,inactive: 0.117,inactive: -0.114,inactive: 0.038,inactive: -0.004,inactive: -0.056,inactive: -0.048,inactive: -0.005
TRIM27 (UniProt P14373),inactive: 0.13,inactive: 0.05,inactive: 0.063,inactive: 0.031,inactive: 0.014,inactive: 0.208,inactive: 0.018,,,inactive: 0.045
TRMT10A (UniProt Q8TBZ6),inactive: -0.003,inactive: -0.26,inactive: -0.007,inactive: -0.018,inactive: -0.024,inactive: 0.018,active: 0.252,inactive: -0.017,inactive: 0.044,inactive: 0.044
TRUB2 (UniProt O95900),inactive: -0.022,inactive: -0.147,inactive: -0.009,inactive: -0.089,,inactive: -0.029,inactive: -0.236,inactive: -0.123,inactive: 0.018,inactive: 0.088
TTLL12 (UniProt Q14166),inactive: 0.006,inactive: 0.049,inactive: -0.047,inactive: 0.036,inactive: 0.027,inactive: 0.005,inactive: -0.023,inactive: 0,inactive: 0.021,inactive: -0.016
TTC37 (UniProt Q6PGP7),inactive: 0.05,inactive: -0.148,inactive: 0.07,inactive: -0.014,inactive: -0.069,inactive: -0.187,inactive: -0.068,,,inactive: 0.051
TTF2 (UniProt Q9UNY4),inactive: 0.043,inactive: -0.003,inactive: 0.063,inactive: -0.001,inactive: -0.026,inactive: 0.042,inactive: -0.046,inactive: 0.039,inactive: 0.032,inactive: -0.006
TRIOBP (UniProt Q9H2D6),inactive: -0.06,inactive: 0.048,inactive: -0.052,inactive: -0.067,inactive: -0.012,inactive: -0.011,inactive: -0.049,inactive: 0.051,inactive: -0.007,inactive: 0.009
TRIT1 (UniProt Q9H3H1),inactive: -0.062,inactive: 0.04,inactive: -0.05,inactive: -0.028,inactive: 0.061,inactive: -0.008,inactive: -0.15,inactive: -0.023,inactive: 0.007,inactive: 0.054

# Full records from above. Order of values: log2 fold change (erlotinib) | log2 fold change [1] | log2 fold change [2] | log2 fold change [3] | log2 fold change [4] | log2 fold change [5] | log2 fold change [6] | log2 fold change [7] | log2 fold change [8] | log2 fold change (IRAK-1-4 Inhibitor I)
# TRIM11 (UniProt Q96F44) is entered as inactive: 0.005 | inactive: -0.012 | inactive: -0.008 | inactive: -0.002 | inactive: 0.012 | inactive: -0.018 | inactive: -0.032 | inactive: -0.046 | inactive: 0.002 | inactive: 0.043
# TRAPPC9 isoform 2 (UniProt Q96Q05) is entered as inactive: 0.033 | inactive: 0.113 | inactive: -0.01 | inactive: 0.006 | inactive: -0.04 | inactive: -0.012 | inactive: -0.005 | inactive: 0.027 | inactive: 0.034 | inactive: 0.027
